Hit rate of the full screen: of about 31,000 sequences, about 1,400 (4.5%) were called active.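 The calls were made as follows: active = median seed-adjusted z-score above 1 or below -1; inactive = the rest.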 The list shows a part of the results.
Assay: Novel Modifiers of Survival Motor Neuron (SMN) Protein: Gene Identification via Genome-wide siRNA Screen;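 also: luminescence tracks full-length SMN protein made from the SMN2 reporter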
Settings: HEK293T SMN2-luciferase reporter, siRNA knockdown, 72 h; actives lie on both sides
In short: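 Luciferase signal, proportional to full-length SMN made from an SMN2 cDNA reporter in stable HEK293T cells, was read 72 h after siRNA reverse transfection. Values were expressed as MAD scores after non-targeting-control normalization and log10 conversion; seed analysis flagged off-targets.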

Sequence | median seed-adjusted z-score
GAAAGACGAUUAAGACGAUTT against SCN1A | inactive: 0.031
GGUGAUGCCCAACUACCCATT against ETV3 | inactive: -0.039
GGACGAUAAACUUCGAAAUTT against ARAP2 | inactive: 0.388
GACUGCACCUUCUUCAAUATT against CIB2 | inactive: 0.569
CCUCCAAUCCAAGACCAAATT against SYT15 | inactive: 0.0164
CACCAGAUCUACCAGUUCATT against ADM | inactive: 0.65
GCAUUGUCGUUGCAAUCGATT against CLCA1 | inactive: 0.015
GUGUUACAAAGGUAGAUUATT against GALNT1 | inactive: -0.164
GGUCAGAGACCAUCCAGAATT against GFRA4 | active: -1.59
GCAUUACACUGUUUAUCCATT against UNG | inactive: 0.259
CCAUCAAGGCAUUCAAAGATT against EGR3 | inactive: -0.232
CCACCCUUCCGAGACAUGATT against TOP3B | active: -1.11
GAAUCUGAGCGAGACAAAATT against MAPK9 | inactive: 0.211
AGAUCUUAGUAAUUACAGUTT against IL8RB | inactive: -0.387
CCUUAUAAGUGUCCGUUUUTT against ZNF236 | inactive: 0.683
GGAGAGAGCGCGAAACUCATT against SLC17A7 | inactive: -0.0794
CCUCAUCUGUGGUUACUGUTT against ZNF212 | inactive: 0.863
GAGAAGAAGUAUUACUUAUTT against PPP1R8 | inactive: -0.029
GCUGAGCUGAGAAAUGCUATT against RUNX1 | inactive: -0.0264
GGGUUAAUGUUGAGGAAUUTT against NME7 | inactive: -0.331
CGGAUGCACCAGCACAACATT against NMNAT3 | inactive: 0.0197
CGGACUUCGUCAACAAGUUTT against TSSK6 | inactive: -0.408

6 entries from above, as tab-separated lines:
Sequence	median seed-adjusted z-score
GACUGCACCUUCUUCAAUATT against CIB2	inactive: 0.569
CCUCCAAUCCAAGACCAAATT against SYT15	inactive: 0.0164
CACCAGAUCUACCAGUUCATT against ADM	inactive: 0.65
GCAUUGUCGUUGCAAUCGATT against CLCA1	inactive: 0.015
GUGUUACAAAGGUAGAUUATT against GALNT1	inactive: -0.164
GGUCAGAGACCAUCCAGAATT against GFRA4	active: -1.59

Further entries:

Sequence | median seed-adjusted z-score
CCGUUUACCUGAUAAACCUTT against RXFP1 | inactive: 0.314
AGAUCAAGCCCAAGAUGUUTT against HPN | inactive: -0.0237
GUUCAGACCUUCCUACGAATT against ITGA10 | inactive: 0.378
GAUCCAAAGUAACUAAACATT against HMGN3 | inactive: -0.182
GAACCUGGAUUCUCCCUCATT against PKMYT1 | inactive: 0.65
GACAGAUUGUUAUAUACGATT against DYNC1I2 | inactive: -0.167
UGUGGGCUACCUACACGUATT against APLNR | inactive: 0.794
GGAGACCCAAUGACAUUUATT against POP7 | inactive: 0.114
AGAUGAUGGUGAACAACUATT against CA5A | inactive: -0.0668
GGAUGGAAGAUAGCUUGAATT against CPEB4 | inactive: -0.53
CAACCCUACCAAUAUCAGATT against GMPS | inactive: -0.485
GUAUACUCACCAUCGCUAUTT against FCAMR | inactive: 0.137
AGAGAUCUGCUAACUCAAATT against SST | inactive: -0.043
GCUCAGCAUUGUCUGCAAATT against RNASE6 | inactive: 0.832
CAACUAUCUAAGAAGUAAATT against FLT3 | inactive: 0.418
CCAACAUCCUGUGAAUUUUTT against TESSP2 | inactive: 0.419
CGAACAGACGGUGCCCUAUTT against EDN3 | inactive: -0.427
GGUGGUCUCCUUACAAUGATT against STK31 | inactive: 0.699
GCAAGGAUCAGUUUCCGGATT against RHOC | inactive: -0.579
GGAACUUGCUUACAACCAATT against FPGT | inactive: 0.36
CGUUCUCUGUGAGAUCAUUTT against LIMK2 | inactive: -0.0288
CUGAUGACCUUUUCCAGUATT against JMJD6 | inactive: 0.314

Sequence | median seed-adjusted z-score
CGAGUAGAGCUGAUACCAATT against PTPN14 | inactive: 0
CACACUCCCAAAGACGAUGTT against FAHD2B | inactive: 0.154
GGAACAUUCCUGUGCAACATT against MTMR3 | inactive: 0.281
GCAAAUGUCUUGGACAGAUTT against CHRNA7 | inactive: -0.485
CGGAGAUACUGACAGAUGATT against ATP5G2 | inactive: 0
GAAGGACUGAUAAAACGAUTT against GANC | inactive: 0.799
CCUGCAGACUUGGAAGUCATT against RSAD1 | inactive: -0.269
GGAUCGGGUGUAUCAACAATT against SRP54 | inactive: 0.203
GCCUCCACGGAAGAUGUAATT against ZNF746 | inactive: 0.1
AUAUGAGUGAGAAAGCUUATT against ZNF16 | inactive: 0
GCUUAGAUCCUGCAGCUAUTT against POLR3A | inactive: 0.395
CCUCAUGCCUUAAUGAUCATT against ZNF561 | inactive: -0.00904
CGGCUGGUCUUUUUACUUUTT against CACNG4 | inactive: -0.0702
GGACAAAGUCCUAAAGAAATT against MGC21874 | inactive: -0.354
GGAAAAUCAUUUCAUCGAATT against ZNF418 | inactive: 0.804
GAACAACGGCUGAAGUUGATT against CADPS | inactive: 0.551
GCUGGUCCAGUGGAUCUAATT against MSTN | inactive: -0.639
GUUCCUUGUUUAUGAGAAATT against SLC25A17 | inactive: 0.0311
CCUCAACAAGUGAACUUUATT against GMDS | inactive: 0
AGAACCUCCUCUACCUGUATT against DNAL4 | inactive: 0
GGGAUGAUAUGAAAGGAGATT against FYN | inactive: -0.0476
GAAGAUCAAGAAUAAGAUUTT against CREB3L2 | inactive: -0.192

Sequence | median seed-adjusted z-score
GGAGAAGCUCUAUACGAAATT against DNAJC5B | inactive: 0
CACUCUUCCUUGUACAUAATT against ZNF37A | inactive: -0.0585
CGACUUCACCAACCACAAUTT against PPIF | inactive: 0.0719
GAGCUGCAGUAAUUGUGGATT against ZFYVE27 | inactive: 0.0439
GACUGUCUUUGAAAAGAGATT against HESX1 | inactive: 0.3
AGGACAAAUUAUGAAAACATT against UBE2V2 | inactive: 0.556
CACCACCAUUCAUACCUCATT against RBMS2 | inactive: -0.918
CGUCGAUUCCCAGAUCUUATT against MSH2 | inactive: 0
ACACCUUUGAUAAGAAUUATT against RAB34 | inactive: 0.342
UGGCCUUCGUCAACAGCUGTT against GPR25 | inactive: 0.377
CAAACUCCCGGAUCAUAGATT against CYP27A1 | inactive: -0.391
CUCAAUUACUUCCACCUAATT against FOXR1 | inactive: -0.153
CCAAUGACAAAAUCCGUGATT against APOB | inactive: -0.0862
GGAUCUAUAGUGAUUGUCATT against TFRC | inactive: 0.019
AGGGAAUCCUGAGCAGACATT against VTN | inactive: -0.435
UCAACUGCCCAUACACUUATT against LOC647743 | inactive: -0.203
GAAACUACCCAAAGUCGUATT against SCARF2 | inactive: 0
CCAAGUACCCGUUACUCAUTT against ARHGEF2 | inactive: 0.0929
GGAACAGCUUAAGAUUGAATT against GNG3 | inactive: -0.186
GGAUUUGCCUUACCACUAATT against PPP2R5C | active: 1.14
GGGAGCAAAUGUUAACGCATT against ANK2 | inactive: 0
GAUCCUUUUCAUUUCGGAATT against GMPR2 | inactive: 0.232

Sequence | median seed-adjusted z-score
GAAACCUACUUGAUCAUCATT against ZNF23 | inactive: -0.106
GCUGCUUCUUUAUUCGGCATT against NCAM2 | inactive: 0.192
CACUAACUGAUUUACAAGATT against UBE2J1 | active: -1.2
GGAAACUUUGCAAAUGUAATT against ZNF137 | inactive: 0.0526
CGGCUACGACGAUUACGAATT against MYO15A | inactive: 0.0508
GGGAUGUCCUUAUUGCCCATT against GNS | inactive: 0
GAAGCACAGUAUAUCCGGATT against PCMTD2 | inactive: -0.0765
CAAUAUCUACUUAGAAGCATT against GBP7 | inactive: 0
GAACAACGCAAAUUUCUGATT against HS6ST2 | inactive: 0
CCAGAGAAGUUUGCCCUGATT against SMARCB1 | inactive: 0.05
GGUGUAUUCGCCUAUGAAATT against DMPK | inactive: -0.0417
GCAUUGUCCGCUUCACGAATT against HCN4 | inactive: -0.282
AGACAUAGAGGACAUUAAATT against GJB6 | inactive: 0.0376
GCCCGAUGCUUUCCACAUUTT against SLC5A9 | inactive: 0.15
AGAUGCUUCCUAGAGGAAATT against TRIM17 | inactive: 0.574
UGAUCUUUAUUCUCCGAAATT against ELOVL1 | inactive: 0.564
GUGUAUCUAUGGAAGAGCATT against PSMD4 | active: 1.46
CACCACUACUGCACCCGUATT against RGR | inactive: 0.217
AAAGGAUCUCUAUAUCCUATT against CARD16 | inactive: 0.57
GCAUGGAGGAUGAUGCUAUTT against SSH1 | inactive: 0.209

From PubChem BioAssay AID1347426 (Functional Genomics Laboratory (NCATS/FGL), 2020)
